Reference: US20230390401A1, “RAPIDLY RELEASED BIOORTHOGONAL CAGING GROUPS” (University of Utah Research Foundation, priority 2018, published 2023)

What was measured:
[1] = Tetrazine-mediated ICPr/ICPrc unmasking monitored by UV-Vis absorbance and fluorescence; settings: reaction with DPTz; for unmasking yield based on the absorbance intensity of the product: c(probe)=1 mM, c(Tz)=3 mM, PBS:DMSO (1:1), T=37° C.
[2] = Prodrug release by DPTz assessed by HPLC; settings: prodrug c=1 mM, DPTz c=2 mM, PBS:DMSO (1:1), T=37° C., t=4 h; 2 mM GSH with exception of ICPr-SN-38

Structure (SMILES) | fluorescence turn-on signal on liberation of the 1,8-naphthalimide [1] | unmasking yield based on the absorbance intensity of the product [1] | drug release yield by HPLC [2]
[C-]#[N+]CCCOC(=O)Nc1ccc2c3c(cccc13)C(=O)N(CCOCCOCCOCCOC)C2=O [ICPrc-NH-NA] | 76 fold | 93.5±2.5% | –
[C-]#[N+]CCCOC(=O)N1C2CN3C4=C(C(=O)C(N)=C(C)C4=O)C(COC(N)=O)C3(OC)C21 (stereo not shown) [ICPrc-mmC, N-(3-isocyanopropyl-1-carbamoyl)Mitomycin C] | – | – | 79±6%
[C-]#[N+]CCCOC(=O)NC1CC(OC2CC(O)(C(=O)CO)Cc3c(O)c4c(c(O)c32)C(=O)c2c(OC)cccc2C4=O)OC(C)C1O (stereo not shown) [ICPrc-dox, N-(3-isocyanopropyl-1-carbamoyl)doxorubicin] | – | – | 91±4%
[C-]#[N+]CCCOc1ccc2c3c(cccc13)C(=O)N(CCOCCOCCOCCOC)C2=O [ICPr-O-NA, N-(methyl-PEG4)-4-(3-isocyanopropyl-1-oxy)-1,8-naphthalimide] | 1210 fold | 99.1±4.5% | –
[C-]#[N+]CCCSc1ncnc2nc[nH]c12 [ICPr-mp, 6-(3-isocyanopropyl)mercaptopurine] | – | – | 94±3%
